Measured values taken from PubChem BioAssay AID330 (DTP/NCI, 2004).
The list shows only some results of the screen, not a fair sample: it gathers tests that were run many times, whatever their T/C, doses with no T/C, and many T/C values between a quarter and a half above the control. Further doses and runs are listed elsewhere. T/C: endpoint of the treated group in % of that of the vehicle group. Some entries give survivors of the animals treated and no T/C: the source files T/C as zero there, which appears to mark a toxic dose or a test without result, not a measured value. Some survivor counts are full or nearly so, which does not show that the dose was tolerated: survival well below the control is almost never listed, so the zero probably covers shortened survival too. Survivors were counted at the toxicity check, usually on the fifth day, unless a day is given; later deaths do not show. Schedules are NCI's codes, read here as Q, the interval in days (D) or hours (H), X, the number of doses. Signs of the kind (2×) stand for listed records that agree. Some doses were run more than once; their values stand side by side, smallest first. For survival time, the PubChem record calls one and a half times the control and up active, and a quarter to a half above the control has no call in these data; cut-offs in other NCI protocols can differ. Some T/C values are followed by the survivors on the day toxicity was checked, most often the fifth; where none is given, no animal had died by that day.

Tested on: P388 leukemia ip, CD2F1 mice, survival T/C
Test: NCI In Vivo Anticancer Drug Screen. Data for tumor model P388 Leukemia (intraperitoneal) in CD2F1 (CDF1) mice
Conditions: T/C endpoint: median survival time, higher T/C = longer survival
[1] = dose: 100.0 mg/kg/injection, schedule: Q01DX005 (ip), vehicle: saline with Tween-80
[2] = dose: 200.0 mg/kg/injection, schedule: Q01DX005 (ip), vehicle: saline with Tween-80
[3] = dose: 50.0 mg/kg/injection, schedule: Q01DX009 (ip), vehicle: saline
[4] = dose: 50.0 mg/kg/injection, schedule: Q01DX009 (ip), vehicle: saline with Tween-80
[5] = dose: 100.0 mg/kg/injection, schedule: Q01DX009 (ip), vehicle: saline with Tween-80
[6] = dose: 200.0 mg/kg/injection, schedule: Q01DX009 (ip), vehicle: saline with Tween-80
[7] = dose: 100.0 mg/kg/injection, schedule: Q01DX009 (ip), vehicle: saline
[8] = dose: 200.0 mg/kg/injection, schedule: Q01DX009 (ip), vehicle: saline
[9] = dose: 100.0 mg/kg/injection, schedule: Q01DX005 (ip), vehicle: Klucel (hydroxypropylcellulose) (HPC)
[10] = dose: 200.0 mg/kg/injection, schedule: Q01DX005 (ip), vehicle: Klucel (hydroxypropylcellulose) (HPC)
[11] = dose: 100.0 mg/kg/injection, schedule: Q01DX009 (ip), vehicle: Klucel (hydroxypropylcellulose) (HPC)
[12] = dose: 400.0 mg/kg/injection, schedule: Q04DX002 (ip), vehicle: saline with Tween-80
[13] = dose: 50.0 mg/kg/injection, schedule: Q01DX009 (ip), vehicle: Klucel (hydroxypropylcellulose) (HPC)
[14] = dose: 240.0 mg/kg/injection, schedule: Q01DX005 (ip), vehicle: saline with Tween-80
[15] = dose: 200.0 mg/kg/injection, schedule: Q01DX009 (ip), vehicle: Klucel (hydroxypropylcellulose) (HPC)
[16] = dose: 60.0 mg/kg/injection, schedule: Q01DX005 (ip), vehicle: saline with Tween-80
[17] = dose: 120.0 mg/kg/injection, schedule: Q01DX005 (ip), vehicle: saline with Tween-80

`Cc1ccc2cccnc2c1NCCCCCNC(C)C` was tested, and the survivor count [1] was 0 of 5 and the survivor count [2] was 0 of 5.
`CC(NC(=O)C(NC(=O)c1ccc[n+](Cc2ccccc2)c1)C(C)C)C(N)=O` (stereo not given) was tested, and the survivor count (dose: 60.0 mg/kg/injection, schedule: Q01DX005 (ip), vehicle: saline) was 6 of 6, the survivor count (dose: 120.0 mg/kg/injection, schedule: Q01DX005 (ip), vehicle: saline) was 1 of 6 and the survivor count (dose: 240.0 mg/kg/injection, schedule: Q01DX005 (ip), vehicle: saline) was 0 of 6.
`COc1ccc(NN=O)nc1Br` was tested, and the T/C [3] was 125 [5 of 6 alive] and 137 % of control.
In the case of `O=NNc1cnc2ccccc2n1`, the survivor count (dose: 100.0 mg/kg/injection, schedule: Q01DX009 (ip), vehicle: water) is reported as 3 of 6.
`CC(=Nc1ccccc1)C1=C(O)C(Cc2ccccc2)NC1=O` (stereo not given) was tested, and the T/C [4] was 137 % of control, the T/C [5] was 141 % of control and the survivor count [6] was 5 of 6.
`C[O][Sn]([O][Sn]([Cl])([c]1ccccc1)[c]1ccccc1)([c]1ccccc1)[c]1ccccc1` was tested, and the survivor count (dose: 100.0 mg/kg/injection, schedule: Q04DX003 (ip), vehicle: saline) was 1 of 6, the survivor count (dose: 200.0 mg/kg/injection, schedule: Q04DX003 (ip), vehicle: saline) was 0 of 6 and the T/C (dose: 200.0 mg/kg/injection, schedule: Q04DX003 (ip), vehicle: suspension in saline) was 131 % of control. For the same molecule, the survivor count (dose: 400.0 mg/kg/injection, schedule: Q04DX003 (ip), vehicle: saline) was 0 of 6 and the T/C (dose: 400.0 mg/kg/injection, schedule: Q04DX003 (ip), vehicle: suspension in saline) was 134 % of control.
In the case of `O=C1OC2(CCCCC2)OC(=O)C1=C/C=C/c1ccc([N+](=O)[O-])o1`, the survivor count [5] is reported as 6 of 6 and the survivor count [6] is reported as 4 of 6.
For `N#CSCc1c(Cl)cccc1Cl`, the survivor count (dose: 400.0 mg/kg/injection, schedule: Q01DX009 (ip), vehicle: other) was 0 of 6.
`COc1cc(Br)c(CC(=O)c2ccc3c(c2)OCO3)cc1OC` was tested, and the survivor count [1] was 6 of 6.
`O/N=C/C1CCCC[N-]1.O/N=C/C1CCCC[N-]1.O/N=C/C1CCCC[N-]1.[Cu]` (stereo not given) was tested, and the survivor count (dose: 6.25 mg/kg/injection, schedule: Q01DX009 (ip), vehicle: saline) was 6 of 6, the survivor count (dose: 12.5 mg/kg/injection, schedule: Q01DX009 (ip), vehicle: saline) was 5 of 6 and the survivor count (dose: 25.0 mg/kg/injection, schedule: Q01DX009 (ip), vehicle: saline) was 1 of 6. For the same molecule, the survivor count [3] was 0 of 6, the survivor count [7] was 0 of 6 and the survivor count [8] was 0 of 6.
`C=C1C(=C)C2OC1c1cc3c(cc12)C(=O)C=CC3=O` was tested, and the survivor count (dose: 50.0 mg/kg/injection, schedule: Q01DX005 (ip), vehicle: saline with Tween-80) was 0 of 6 and 2 of 6, the survivor count [1] was 0 of 6 and the survivor count [2] was 0 of 6.
`N#Cc1cc2ccncc2c2ccccc12` was tested, and the survivor count [5] was 6 of 6.
For `Cc1cc(N/N=C/c2ccnc3ccccc23)c2cc3c(cc2n1)OCO3`, the survivor count (dose: 50.0 mg/kg/injection, schedule: Q01DX005 (ip), vehicle: Klucel (hydroxypropylcellulose) (HPC)) was 5 of 6, the survivor count [9] was 5 of 6 and the survivor count [10] was 5 of 6.
`CS(=O)(=O)OC1COCOC1C1OCOCC1OS(C)(=O)=O` (stereo not given) was tested, and the survivor count [11] was 6 of 6.
`COc1cc2c(cc1OC)/C(=N/N=C1\CCCc3cc(OC)c(OC)cc31)CCC2` was tested, and the survivor count (dose: 50.0 mg/kg/injection, schedule: Q01DX009 (ip), vehicle: water) was 6 of 6.
`CC(C)=CCCC(C)=CCON(C)C` (mixture of isomers) was tested, and the survivor count [12] was 1 of 6.
With `OC(CCl)CN1CCN(CC(O)CCl)CC1` (stereo not given) the T/C (dose: 12.5 mg/kg/injection, schedule: Q01DX005 (ip), vehicle: water) was 142 % of control and the survivor count (dose: 200.0 mg/kg/injection, schedule: Q01DX005 (ip), vehicle: water) was 5 of 5.
`c1ccc([S][Pb]([c]2ccccc2)([c]2ccccc2)[c]2ccccc2)cc1` was tested, and the survivor count (dose: 25.0 mg/kg/injection, schedule: Q01DX001 (ip), vehicle: saline) was 6 of 6, the survivor count (dose: 50.0 mg/kg/injection, schedule: Q01DX001 (ip), vehicle: saline) was 6 of 6 and the survivor count (dose: 100.0 mg/kg/injection, schedule: Q01DX001 (ip), vehicle: saline) was 0 of 6 and 1 of 6. The survivor count (dose: 200.0 mg/kg/injection, schedule: Q01DX001 (ip), vehicle: saline) was 2 of 6 and the survivor count (dose: 400.0 mg/kg/injection, schedule: Q01DX001 (ip), vehicle: saline) was 0 of 6.
For `O=NN(CCF)C(=O)NC1CCS(=O)(=O)CC1`, the survivor count (dose: 20.0 mg/kg/injection, schedule: Q04DX003 (ip), vehicle: saline with Tween-80) was 5 of 6.
In the case of `CP1(=S)C=C(NC2CCCCC2)CC1` (stereo not given), the survivor count (dose: 25.0 mg/kg/injection, schedule: Q01DX009 (ip), vehicle: Klucel (hydroxypropylcellulose) (HPC)) is reported as 6 of 6 and the survivor count [13] is reported as 6 of 6.
`CCN(CC)C(CC(=O)C(C)(C)C)=NCCCN1CCN(C)CC1` was tested, and the survivor count [8] was 1 of 6.
For `c1ccc(-c2nc(N3CCN(c4ccco4)CC3)c3c4c(sc3n2)CCC4)cc1`, the survivor count [9] was 6 of 6 and the survivor count [10] was 6 of 6.
In the case of `N=C(N)N1CCNc2ccc(Cl)cc2C1`, the survivor count [12] is reported as 5 of 6.
`CCOC(=O)NN(C(=O)OCC)/C(C(=O)OCC)=C(/C)N` was tested, and the survivor count [7] was 6 of 6 and the survivor count [8] was 5 of 6.
`COC(=O)C1CC=C(c2ccccc2)CNC1` (stereo not given) was tested, and the survivor count (dose: 400.0 mg/kg/injection, schedule: Q01DX001 (ip), vehicle: saline with Tween-80) was 0 of 6.
For `COc1ccc(CN2C(=O)C(Cl)=C(Cl)C2=O)c(OC)c1`, the survivor count [14] was 0 of 6.
`COc1ccc2nc(C)cc(N/N=C/c3cccc(C)n3)c2c1` was tested, and the T/C [13] was 125 % of control, the survivor count [11] was 6 of 6 (2×) and the survivor count [15] was 5 of 6.
`CC(=O)Oc1ccc2c3c1O[C@H]1[C@@H](OC(C)=O)C=C[C@H]4[C@@H](C2)N(C)CC[C@@]341` was tested, and the survivor count (dose: 400.0 mg/kg/injection, schedule: Q01DX009 (ip), vehicle: saline) was 0 of 6.
`[Cu+2].[NH-]C(CC(=O)O)C(=O)O.[NH-]C(CC(=O)O)C(=O)O` (stereo not given) was tested, and the survivor count [16] was 1 of 6, the survivor count [17] was 0 of 6 and the survivor count [14] was 0 of 6.
For `C#CC(=O)CCC`, the survivor count [16] was 0 of 6, the survivor count [17] was 0 of 6 and the survivor count [14] was 0 of 6.
`NC1=NC(c2c3ccccc3cc3ccccc23)N=C(Nc2cccc(Cl)c2)N1` (stereo not given) was tested, and the survivor count (dose: 25.0 mg/kg/injection, schedule: Q01DX009 (ip), vehicle: saline with Tween-80) was 6 of 6, the survivor count [4] was 6 of 6 and the survivor count [5] was 5 of 6. The survivor count [6] was 1 of 6.
With `CNC(=O)OCc1c(COC(=O)NC)c(-c2ccc(C(C)(C)C)cc2)n(C)c1C` the T/C (dose: 3.12 mg/kg/injection, schedule: Q01DX009 (ip), vehicle: distilled water + Tween-80) was 142 % of control, the T/C (dose: 6.25 mg/kg/injection, schedule: Q01DX009 (ip), vehicle: distilled water + Tween-80) was 148 % of control and the T/C (dose: 12.5 mg/kg/injection, schedule: Q01DX009 (ip), vehicle: distilled water + Tween-80) was 144 and 145 % of control [5 of 6 alive]. The T/C (dose: 25.0 mg/kg/injection, schedule: Q01DX009 (ip), vehicle: distilled water + Tween-80) was 145 % of control, the survivor count (dose: 50.0 mg/kg/injection, schedule: Q01DX009 (ip), vehicle: distilled water + Tween-80) was 1 of 6 and 6 of 6 and the survivor count (dose: 100.0 mg/kg/injection, schedule: Q01DX009 (ip), vehicle: distilled water + Tween-80) was 1 of 6 and 2 of 6.
`CCOC(=O)c1c(OC)c(-c2ccccc2)c(=O)n2c3ccccc3n(C)c12` was tested, and the survivor count [14] was 6 of 6.
With `CCCCCCCCCCCC(=O)/C=C/c1ccc(Cl)c(Cl)c1` the survivor count [15] was 6 of 6.
